According to patent US7019144B2, “1,2,4-Triazole derivative, method for preparing the same, and pharmaceutical composition containing the same” (CJ Corp., priority 2002, dated 2006):
Some entries share one result that the patent states for a list of compounds.

Target: T1, COX-2 (Mus musculus, UniProt Q05769)
T1 construct: host or cells: RAW 264.7 cells, aspirin-pretreated, then induced with interferon gamma and LPS
T1 sequence (Q05769 18-604): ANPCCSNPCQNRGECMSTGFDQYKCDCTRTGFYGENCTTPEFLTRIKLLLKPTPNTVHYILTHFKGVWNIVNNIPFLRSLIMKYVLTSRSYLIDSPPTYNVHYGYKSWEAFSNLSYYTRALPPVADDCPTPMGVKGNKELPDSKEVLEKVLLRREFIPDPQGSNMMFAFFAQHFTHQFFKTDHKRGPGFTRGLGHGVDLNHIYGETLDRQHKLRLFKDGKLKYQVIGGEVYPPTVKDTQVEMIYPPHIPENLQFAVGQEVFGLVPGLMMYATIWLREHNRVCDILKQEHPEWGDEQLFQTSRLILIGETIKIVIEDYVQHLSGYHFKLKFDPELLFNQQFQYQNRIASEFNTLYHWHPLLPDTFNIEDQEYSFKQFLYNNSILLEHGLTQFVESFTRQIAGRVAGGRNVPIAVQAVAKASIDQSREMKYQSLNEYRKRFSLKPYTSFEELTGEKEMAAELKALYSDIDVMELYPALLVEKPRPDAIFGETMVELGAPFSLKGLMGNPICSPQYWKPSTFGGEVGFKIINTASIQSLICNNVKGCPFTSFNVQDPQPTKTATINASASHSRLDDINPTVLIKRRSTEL
Assay: Assay for the COX-2 inhibitory activity using RAW 264.7 cell line (PGE2, interferon γ/LPS induced)
Assay type: cell-based
Settings: COX-2 at 10 nM vs COX-1 at 1 μM; comparison in words
Experimental: Each well was treated with 250 μM of aspirin and incubated at 37° C. for 2 hours. […] Then, each well was treated with interferon γ (100 units/ml) and Iipopolysaccharide (LPS, 100 ng/ml) and incubated for 18 hours. The culture media were transferred to another test tubes. The concentration of PGE2 was quantified by means of the EIA kit (Cayman Chemicals).
The percentages of the COX inhibition were calculated according to the following equation: % Inhibition=(concentration of PGE2 in test compound-untreated sample−concentration of PGE2 in test compound-treated sample)/(concentration of PGE2 in test compound-untreated sample)×100

Row | SMILES | inhibition (%) ratio of COX-2 to COX-1 in comparison with the reference (Valdecoxib)
1 | Cc1ccc(-c2nc(C(F)(F)F)nn2-c2ccc(S(C)(=O)=O)cc2)cc1 [Example 24, 1-(4-methanesulfonylphenyl)-5-p-tolyl-3-trifluoromethyl-1H-[1,2,4]triazole] | equal to or higher
2 | COc1ccc(-c2nc(C(F)(F)F)nn2-c2ccc(S(C)(=O)=O)nn2)cc1 [Example 50, 3-[5-(4-methoxyphenyl)-3-trifluoromethyl-[1.2.4]triazol-1-yl]-6-methanesulfonyl pyridazine] | equal to or higher
